{"source": "the supplement of paper PMC10849652", "note": "The list shows a part of the results. Residues, ends and D or L forms follow the SMILES beside them. *: point of attachment. Cbz = O=C(OCc1ccccc1)*"}
{"compound": "CC(C)C1=C2N=C(C=C(N2N=C1)NCC3=CC=CC=C3)NCCCCCCN", "experiment": "log2 fold change, soluble protein after heating vs DMSO (PISA); higher = thermal stabilisation; K562 cells, 10 uM, 30 min; active = over 0.2 and 3.5 SD of the protein, either way, in both replicates (recomputed)", "summary_of_the_method": "(§1)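 Values are thermal stability changes relative to control samples and are taken from duplicates. They are stated as log2 fold changes. Before quantification by TMTpro 16plex LC-MS/MS with equalised channel sums, K562 cells at 2×10^6 cells/mL were treated with 10 μM compound for 30 min, heated in aliquots for 3 min across 48°C-58°C, pooled, extracted in PBS with 0.5% NP-40 at 4°C, and centrifuged at 21,000xg for 90 min to give the soluble supernatant.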"}
{"target": "SFXN2 (UniProt Q96NB2)", "log2 fold change": "inactive: -0.042"}
{"target": "SESN2 (UniProt P58004)", "log2 fold change": "inactive: -0.407"}
{"target": "SGPL1 (UniProt O95470)", "log2 fold change": "inactive: 0.06"}
{"target": "SGTA (UniProt O43765)", "log2 fold change": "inactive: -0.015"}
{"target": "SIDT2 isoform 2 (UniProt Q8NBJ9)", "log2 fold change": "active: -0.353"}
{"target": "SHOC2 (UniProt Q9UQ13)", "log2 fold change": "inactive: -0.005"}
{"target": "SEPSECS (UniProt Q9HD40)", "log2 fold change": "inactive: 0.072"}
{"target": "SERINC1 (UniProt Q9NRX5)", "log2 fold change": "active: -0.568"}
{"target": "SERPINF1 (UniProt P36955)", "log2 fold change": "inactive: 0.229"}
{"target": "SIN3A (UniProt Q96ST3)", "log2 fold change": "inactive: -0.152"}
{"target": "SEH1L isoform 1 (UniProt Q96EE3)", "log2 fold change": "inactive: -0.019"}
{"target": "SETD3 (UniProt Q86TU7)", "log2 fold change": "inactive: 0.027"}
{"target": "SEPTIN9 (UniProt Q9UHD8)", "log2 fold change": "inactive: 0.022"}
{"target": "SEPTIN4 isoform 4 (UniProt O43236)", "log2 fold change": "inactive: 0.058"}
{"target": "SHCBP1 (UniProt Q8NEM2)", "log2 fold change": "active: -0.516"}
{"target": "SENP6 (UniProt Q9GZR1)", "log2 fold change": "inactive: 0.094"}
{"target": "SELENOH (UniProt Q8IZQ5)", "log2 fold change": "inactive: 0.059"}
{"target": "SETMAR (UniProt Q53H47)", "log2 fold change": "inactive: 0.227"}
{"target": "SKP1 (UniProt P63208)", "log2 fold change": "inactive: 0.068"}
{"target": "SH3GLB2 (UniProt Q9NR46)", "log2 fold change": "active: -0.27"}
{"target": "SEPHS2 (UniProt Q99611)", "log2 fold change": "inactive: 0.055"}
{"target": "SERPINA7 (UniProt P05543)", "log2 fold change": "inactive: 0.066"}
{"target": "SERPINB6, A0A087X1N8", "log2 fold change": "inactive: 0.04"}
{"target": "SHC1 isoform 6 (UniProt P29353)", "log2 fold change": "inactive: 0.042"}
{"target": "SERINC3 (UniProt Q13530)", "log2 fold change": "active: -0.399"}
{"target": "SEL1L3 (UniProt Q68CR1)", "log2 fold change": "inactive: -0.166"}
{"target": "SFXN5 (UniProt Q8TD22)", "log2 fold change": "inactive: -0.083"}
{"target": "SH3GL1 (UniProt Q99961)", "log2 fold change": "inactive: -0.238"}
{"target": "SEPTIN5 (UniProt Q99719)", "log2 fold change": "inactive: 0.034"}
{"target": "SIRT2 (UniProt Q8IXJ6)", "log2 fold change": "inactive: -0.033"}
{"target": "SIGMAR1 (UniProt Q99720)", "log2 fold change": "inactive: 0.122"}
{"target": "SELENOF (UniProt O60613)", "log2 fold change": "inactive: -0.026"}
{"compound": "CC(C)C[C@@H](C=O)NC(=O)[C@H](CC(C)C)NC(=O)[C@H](CC(C)C)NC(=O)OCc1ccccc1", "experiment": "log2 fold change, soluble protein after heating vs DMSO (PISA); higher = thermal stabilisation; K562 cells, 10 uM, 30 min; active = over 0.2 and 3.5 SD of the protein, either way, in both replicates (recomputed)", "summary_of_the_method": "as §1"}
{"target": "SFXN2 (UniProt Q96NB2)", "log2 fold change": "inactive: 0.053"}
{"target": "SESN2 (UniProt P58004)", "log2 fold change": "inactive: 0.055"}
{"target": "SGPL1 (UniProt O95470)", "log2 fold change": "inactive: 0.002"}
{"target": "SGTA (UniProt O43765)", "log2 fold change": "inactive: 0.002"}
{"target": "SIDT2 isoform 2 (UniProt Q8NBJ9)", "log2 fold change": "inactive: 0"}
{"target": "SHOC2 (UniProt Q9UQ13)", "log2 fold change": "inactive: 0.016"}
{"target": "SEPSECS (UniProt Q9HD40)", "log2 fold change": "inactive: -0.025"}
{"target": "SERINC1 (UniProt Q9NRX5)", "log2 fold change": "inactive: 0.095"}
{"target": "SERPINF1 (UniProt P36955)", "log2 fold change": "inactive: -0.051"}
{"target": "SIN3A (UniProt Q96ST3)", "log2 fold change": "inactive: 0.069"}
{"target": "SEH1L isoform 1 (UniProt Q96EE3)", "log2 fold change": "inactive: -0.026"}
{"target": "SETD3 (UniProt Q86TU7)", "log2 fold change": "inactive: -0.022"}
{"target": "SEPTIN9 (UniProt Q9UHD8)", "log2 fold change": "inactive: -0.012"}
{"target": "SEPTIN4 isoform 4 (UniProt O43236)", "log2 fold change": "inactive: -0.165"}
{"target": "SHCBP1 (UniProt Q8NEM2)", "log2 fold change": "inactive: 0.012"}
{"target": "SENP6 (UniProt Q9GZR1)", "log2 fold change": "inactive: 0.043"}
{"target": "SELENOH (UniProt Q8IZQ5)", "log2 fold change": "inactive: -0.012"}
{"target": "SETMAR (UniProt Q53H47)", "log2 fold change": "inactive: -0.061"}
{"target": "SKP1 (UniProt P63208)", "log2 fold change": "inactive: -0.069"}
{"target": "SH3GLB2 (UniProt Q9NR46)", "log2 fold change": "inactive: 0.066"}
{"target": "SEPHS2 (UniProt Q99611)", "log2 fold change": "inactive: -0.054"}
{"target": "SERPINA7 (UniProt P05543)", "log2 fold change": "inactive: 0.043"}
{"target": "SERPINB6, A0A087X1N8", "log2 fold change": "inactive: -0.028"}
{"target": "SHC1 isoform 6 (UniProt P29353)", "log2 fold change": "inactive: 0.03"}
{"target": "SERINC3 (UniProt Q13530)", "log2 fold change": "inactive: 0.17"}
{"target": "SEL1L3 (UniProt Q68CR1)", "log2 fold change": "inactive: 0.035"}
{"target": "SFXN5 (UniProt Q8TD22)", "log2 fold change": "inactive: 0.187"}
{"target": "SH3GL1 (UniProt Q99961)", "log2 fold change": "inactive: 0.013"}
{"target": "SEPTIN5 (UniProt Q99719)", "log2 fold change": "inactive: -0.051"}
{"target": "SIRT2 (UniProt Q8IXJ6)", "log2 fold change": "inactive: 0.028"}
{"target": "SIGMAR1 (UniProt Q99720)", "log2 fold change": "inactive: 0.022"}
{"target": "SELENOF (UniProt O60613)", "log2 fold change": "inactive: 0.008"}
{"compound": "CC(C)N(C[C@H]1O[C@@H](n2cnc3c(N)ncnc32)[C@H](O)[C@@H]1O)[C@H]1C[C@@H](CCc2nc3cc(C(C)(C)C)ccc3[nH]2)C1 [pinometostat]", "experiment": "log2 fold change, soluble protein after heating vs DMSO (PISA); higher = thermal stabilisation; K562 cells, 10 uM, 30 min; active = over 0.2 and 3.5 SD of the protein, either way, in both replicates (recomputed)", "summary_of_the_method": "as §1"}
{"target": "SFXN2 (UniProt Q96NB2)", "log2 fold change": "inactive: -0.041"}
{"target": "SESN2 (UniProt P58004)", "log2 fold change": "inactive: 0.081"}
{"target": "SGPL1 (UniProt O95470)", "log2 fold change": "inactive: 0.1"}
{"target": "SGTA (UniProt O43765)", "log2 fold change": "inactive: -0.038"}
{"target": "SIDT2 isoform 2 (UniProt Q8NBJ9)", "log2 fold change": "inactive: 0.271"}
{"target": "SHOC2 (UniProt Q9UQ13)", "log2 fold change": "inactive: 0.066"}
{"target": "SEPSECS (UniProt Q9HD40)", "log2 fold change": "inactive: -0.017"}
{"target": "SERINC1 (UniProt Q9NRX5)", "log2 fold change": "inactive: -0.022"}
{"target": "SERPINF1 (UniProt P36955)", "log2 fold change": "inactive: -0.02"}
{"target": "SIN3A (UniProt Q96ST3)", "log2 fold change": "inactive: 0.177"}
{"target": "SEH1L isoform 1 (UniProt Q96EE3)", "log2 fold change": "inactive: 0.011"}
{"target": "SETD3 (UniProt Q86TU7)", "log2 fold change": "inactive: 0.002"}
{"target": "SEPTIN9 (UniProt Q9UHD8)", "log2 fold change": "inactive: 0.011"}
{"target": "SEPTIN4 isoform 4 (UniProt O43236)", "log2 fold change": "inactive: -0.185"}
{"target": "SHCBP1 (UniProt Q8NEM2)", "log2 fold change": "inactive: 0.066"}
{"target": "SENP6 (UniProt Q9GZR1)", "log2 fold change": "inactive: 0.004"}
{"target": "SELENOH (UniProt Q8IZQ5)", "log2 fold change": "inactive: -0.012"}
{"target": "SETMAR (UniProt Q53H47)", "log2 fold change": "inactive: 0.078"}
{"target": "SKP1 (UniProt P63208)", "log2 fold change": "inactive: -0.08"}
{"target": "SH3GLB2 (UniProt Q9NR46)", "log2 fold change": "inactive: -0.004"}
{"target": "SEPHS2 (UniProt Q99611)", "log2 fold change": "inactive: -0.016"}
{"target": "SERPINA7 (UniProt P05543)", "log2 fold change": "inactive: 0"}
{"target": "SERPINB6, A0A087X1N8", "log2 fold change": "inactive: -0.033"}
{"target": "SHC1 isoform 6 (UniProt P29353)", "log2 fold change": "inactive: -0.013"}
{"target": "SERINC3 (UniProt Q13530)", "log2 fold change": "inactive: -0.01"}
{"target": "SEL1L3 (UniProt Q68CR1)", "log2 fold change": "inactive: 0.064"}
{"target": "SFXN5 (UniProt Q8TD22)", "log2 fold change": "inactive: 0.03"}
{"target": "SH3GL1 (UniProt Q99961)", "log2 fold change": "inactive: 0.032"}
{"target": "SEPTIN5 (UniProt Q99719)", "log2 fold change": "inactive: -0.041"}
{"target": "SIRT2 (UniProt Q8IXJ6)", "log2 fold change": "inactive: -0.002"}
{"target": "SIGMAR1 (UniProt Q99720)", "log2 fold change": "inactive: -0.045"}
{"target": "SELENOF (UniProt O60613)", "log2 fold change": "inactive: 0.006"}
